Assay: Reaction of compound (6) with reactive functional groups (hydroxyl, thiol); recovery of unreacted compound

Q: Which results are given for `CCN1C(=CC=CC=CC=CC2=[N+](CCCCCC(=O)N3CCSC3=S)c3ccc4ccccc4c3C2(C)C)C(C)(C)c2c1ccc1ccccc21.[Cl-]` [ICG-ATT (6), 2-[7-(1,3-Dihydro-1,1-dimethyl-3-ethylbenz[e]indolin-2-ylidene)-1,3,5-heptatrienyl]-1,1-dimethyl-3-[[6-[(1,3-thiazolidine-2-thion)-1-yl]-6-oxo]hexyl]-1H-benz[e]indolium Chloride]?
A: recovered compound (6) after treatment with 2-phenylethyl alcohol (acetonitrile, 0° C. 30 minutes then room temperature 30 minutes): 96%; recovered compound (6) after treatment with 2-phenylethylthiol (treated similarly to 2-phenylethyl alcohol): 96%

From US6403625B1, “Fluorescent labeling reagents” (Daiichi Pure Chemicals Co., Ltd., priority 1998, dated 2002)
